According to US6440732:
Results are given in words; binding and its absence hold for the method and conditions named. For part of these data: Binding seen in cells or lysates may run through a third protein. Some results given as binding are weak or reduced against the parent protein; the word gives no strength. For part of these data: Sequences can lack the tags named with a protein. Values belong to the binder of their own block, whether it stands above or below them.

Sequences of proteins named here, by UniProt entry; tags and fusion partners are left off.
UniProt O96017: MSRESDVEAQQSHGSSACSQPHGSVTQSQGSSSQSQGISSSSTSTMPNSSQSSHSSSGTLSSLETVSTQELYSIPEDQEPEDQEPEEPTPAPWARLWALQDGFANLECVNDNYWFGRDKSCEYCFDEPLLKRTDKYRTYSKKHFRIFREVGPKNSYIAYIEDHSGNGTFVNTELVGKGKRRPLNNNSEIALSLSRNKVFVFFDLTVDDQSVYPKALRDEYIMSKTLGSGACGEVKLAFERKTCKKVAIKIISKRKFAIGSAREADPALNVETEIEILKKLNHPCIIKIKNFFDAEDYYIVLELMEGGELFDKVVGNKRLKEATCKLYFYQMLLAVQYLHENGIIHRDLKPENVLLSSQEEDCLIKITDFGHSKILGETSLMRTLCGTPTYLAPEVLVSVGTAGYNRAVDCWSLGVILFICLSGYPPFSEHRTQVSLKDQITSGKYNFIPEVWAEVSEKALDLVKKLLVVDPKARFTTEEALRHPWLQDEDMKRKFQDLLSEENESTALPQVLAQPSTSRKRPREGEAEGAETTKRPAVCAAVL

Assays:
[1] = molecular target: FLAG-tagged human Cds1 (human Cds1 ORF in pYC1FLAG, downstream of and in frame with the FLAG epitope) (human) (UniProt O96017); test: co-immunoprecipitation from transfected mammalian cells
[2] = molecular target: FLAG-tagged human Cds1 (human Cds1 ORF in pYC1FLAG, downstream of and in frame with the FLAG epitope) (human) (UniProt O96017); test: reciprocal co-immunoprecipitation from transfected HEK293 cells, western blot
[3] = molecular target: FLAG-tagged human Cds1 (human Cds1 ORF in pYC1FLAG, downstream of and in frame with the FLAG epitope) (human) (UniProt O96017); test: co-immunoprecipitation, western blots of lysates and immunoprecipitates (FIG. 8)
[4] = molecular target: T1, S. pombe Cds1 FHA domain (S. pombe) (UniProt Q09170); test: yeast two-hybrid screen, Cds1 FHA domain as bait, S. pombe cDNA library as prey
T1 sequence (looked up): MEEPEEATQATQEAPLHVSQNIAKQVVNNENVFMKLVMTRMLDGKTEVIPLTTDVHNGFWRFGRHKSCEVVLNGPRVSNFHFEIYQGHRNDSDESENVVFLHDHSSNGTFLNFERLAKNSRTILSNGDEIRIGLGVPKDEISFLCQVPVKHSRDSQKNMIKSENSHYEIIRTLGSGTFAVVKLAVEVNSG

[5] = molecular target: T1, S. pombe Cds1 FHA domain (S. pombe); test: summary of the yeast two-hybrid result
S. pombe Cds1 (S. pombe) = molecular target: T2, S. pombe Cds1 (S. pombe) (UniProt Q09170); test: co-immunoprecipitation in S. pombe
T2 sequence (looked up): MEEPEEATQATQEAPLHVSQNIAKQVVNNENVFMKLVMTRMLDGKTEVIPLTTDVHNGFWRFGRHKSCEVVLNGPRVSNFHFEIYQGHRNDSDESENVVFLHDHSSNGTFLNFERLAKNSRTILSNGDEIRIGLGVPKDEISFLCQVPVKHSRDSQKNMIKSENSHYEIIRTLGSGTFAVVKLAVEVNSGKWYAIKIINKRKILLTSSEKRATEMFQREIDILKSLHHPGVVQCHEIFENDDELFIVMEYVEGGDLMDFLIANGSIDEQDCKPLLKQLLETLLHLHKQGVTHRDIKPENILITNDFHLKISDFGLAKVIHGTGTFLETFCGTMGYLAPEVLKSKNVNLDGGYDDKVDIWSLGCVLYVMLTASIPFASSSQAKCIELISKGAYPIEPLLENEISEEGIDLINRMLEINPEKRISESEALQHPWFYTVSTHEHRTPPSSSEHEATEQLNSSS

binding [1]: binds
binding [2]: binds
binding [3]: binds
B1: HA-tagged human Mus81 (Hmus811 ORF in pYC1HA, downstream of and in frame with the HA epitope tag) (protein, not shown: small tags and cut ends)
chain: MAAPVRLGRKRPLPACPNPLFVRWLTEWRDEATRSRHRTRFVFQKALRSLRRYPLPLRSGKEAKILQHFGDGLCRMLDERLQRHRTSGGDHAPDSPSGENSPAPQGRLAEVQDSSMPVPAQPKAGGSGSYWPARHSGARVILLVLYREHLNPNGHHFLTKEELLQRCAQKSPRVAPGSAPPWPALRSLLHRNLVLRTHQPARYSLTPEGLELAQKLAESEGLSLLNVGIGPKEPPGEETAVPGAASAELASEAGVQQQPLELRPGEYRVLLCVDIGETRGGGHRPELLRELQRLHVTHTVRKLHVGDFVWVAQETNPRDPANPGELVLDHIVERKRLDDLCSSIIDGRFREQKFRLKRCGLERRVYLVEEHGSVHNLSLPESTLLQAVTNTQVIDGFFVKRTADIKESAAYLALLTRGLQRLYQGHTLRSRPWGTPGNPESGAMTSPNPLCSLLTFSDFNAGAIKNKAQSVREVFARQLMQVRGVSGEKAAALVDRYSTPASLLAAYDACATPKEQETLLSTIKCGRLQRNLGPALSRTLSQLYCSYGPLT

binding [4]: binds
binding [5]: binds
binding (S. pombe Cds1 (S. pombe)): binds
B2: S. pombe Mus81 (translation product of ORF SPCC4G3.05c, 572 amino acid hypothetical protein PID g2213548) (protein)
chain: MKSCPITFHRPSQALALKGIGPTICAKLEKKWNAYCLENNIPISTHNEQNDSHVNANKSSSETSSEKPRSVKKPTTRKRKVYVPSYRSGAYSILCALYMLNKHEFATKPQIVTMAQPYCDSSFGSATDRNMRYTAWSAMKTLITKNLVYQTGHPSKYCLTDDGEEVCIRLAKVDDSFQRKHTVSNFSVSKSDDHDSSLCQPPNFVTSINKAGSSSDHGGELHVTYCPVDHNEVSDGVETDIDVDQVDSLTGIHDHHIINNEQLIDLTEQEKKQPNESNLSNLKIETVLFSNCTVFLLIDTREIRSPLDRNLIIDKLTNDFGVNCQVRSLELGDALWVARDMESGQEVVLDFVVERKRYDDLVASIKDGRFHEQKARLKKSGIRSVTYILEESSYDESFTESIRTAVSNTQVDQLFHVRHTRSLEHSVSLLAEMTKQINLFYEKRKTLAVIPDLSIEAKTYESLREQLLKIDPSTPYHISYHAFSSVLSKSSTLTVGDIFIRMLMTIKGISASKAIEIQKKYPTFMHLFEAYEKSSSSQERNLLLNKTCQGYGFQTIGPALSAKVASVFFPES
